Measured values as given in the supplement of paper PMC12823440, “Inhibitors supercharge kinase turnover through native proteolytic circuits” (Nature, 2025).
Where a name gives a salt, the structure may show the parent alone. The list shows a part of the results. The calls rarely recur for the same compound in another form.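 Kinases were expressed as nanoluciferase fusions in K562 cells and luminescence was read every 4 h between 2 and 18 h as percent of control, DMSO set to 100% and a positive control to 0%. A time point counts as decreased when the signal drops significantly (2 sigma). The hit call is the authors' own, does not follow from the count of time points alone, and its rule is not shown.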

Sequences of proteins named here, by UniProt entry; tags and fusion partners are left off.
UniProt P29317, whole entry: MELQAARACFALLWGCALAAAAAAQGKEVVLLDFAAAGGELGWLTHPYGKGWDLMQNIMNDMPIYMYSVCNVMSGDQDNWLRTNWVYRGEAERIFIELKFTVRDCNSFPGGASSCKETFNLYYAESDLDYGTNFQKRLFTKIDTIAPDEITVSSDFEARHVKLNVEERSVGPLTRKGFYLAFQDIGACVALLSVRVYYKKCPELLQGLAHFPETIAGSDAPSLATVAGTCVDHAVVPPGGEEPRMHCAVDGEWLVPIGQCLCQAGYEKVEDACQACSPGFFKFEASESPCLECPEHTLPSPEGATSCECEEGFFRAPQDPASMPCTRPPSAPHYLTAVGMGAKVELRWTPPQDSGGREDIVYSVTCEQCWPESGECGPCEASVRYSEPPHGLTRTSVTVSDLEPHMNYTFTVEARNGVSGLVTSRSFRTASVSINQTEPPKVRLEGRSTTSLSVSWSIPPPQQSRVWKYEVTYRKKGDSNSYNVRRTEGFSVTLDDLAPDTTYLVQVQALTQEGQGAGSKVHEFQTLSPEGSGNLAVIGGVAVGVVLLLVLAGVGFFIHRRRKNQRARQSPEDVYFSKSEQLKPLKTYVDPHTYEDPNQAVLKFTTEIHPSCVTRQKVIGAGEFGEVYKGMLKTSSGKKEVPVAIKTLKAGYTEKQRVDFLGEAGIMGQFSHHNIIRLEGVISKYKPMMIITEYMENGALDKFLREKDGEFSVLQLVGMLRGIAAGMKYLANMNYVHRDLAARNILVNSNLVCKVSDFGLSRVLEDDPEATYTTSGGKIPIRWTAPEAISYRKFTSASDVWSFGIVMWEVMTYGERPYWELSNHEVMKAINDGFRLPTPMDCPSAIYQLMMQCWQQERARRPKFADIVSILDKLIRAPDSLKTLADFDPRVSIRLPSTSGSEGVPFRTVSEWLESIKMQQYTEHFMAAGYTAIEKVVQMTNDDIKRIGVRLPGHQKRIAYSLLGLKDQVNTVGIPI
UniProt P21860, whole entry: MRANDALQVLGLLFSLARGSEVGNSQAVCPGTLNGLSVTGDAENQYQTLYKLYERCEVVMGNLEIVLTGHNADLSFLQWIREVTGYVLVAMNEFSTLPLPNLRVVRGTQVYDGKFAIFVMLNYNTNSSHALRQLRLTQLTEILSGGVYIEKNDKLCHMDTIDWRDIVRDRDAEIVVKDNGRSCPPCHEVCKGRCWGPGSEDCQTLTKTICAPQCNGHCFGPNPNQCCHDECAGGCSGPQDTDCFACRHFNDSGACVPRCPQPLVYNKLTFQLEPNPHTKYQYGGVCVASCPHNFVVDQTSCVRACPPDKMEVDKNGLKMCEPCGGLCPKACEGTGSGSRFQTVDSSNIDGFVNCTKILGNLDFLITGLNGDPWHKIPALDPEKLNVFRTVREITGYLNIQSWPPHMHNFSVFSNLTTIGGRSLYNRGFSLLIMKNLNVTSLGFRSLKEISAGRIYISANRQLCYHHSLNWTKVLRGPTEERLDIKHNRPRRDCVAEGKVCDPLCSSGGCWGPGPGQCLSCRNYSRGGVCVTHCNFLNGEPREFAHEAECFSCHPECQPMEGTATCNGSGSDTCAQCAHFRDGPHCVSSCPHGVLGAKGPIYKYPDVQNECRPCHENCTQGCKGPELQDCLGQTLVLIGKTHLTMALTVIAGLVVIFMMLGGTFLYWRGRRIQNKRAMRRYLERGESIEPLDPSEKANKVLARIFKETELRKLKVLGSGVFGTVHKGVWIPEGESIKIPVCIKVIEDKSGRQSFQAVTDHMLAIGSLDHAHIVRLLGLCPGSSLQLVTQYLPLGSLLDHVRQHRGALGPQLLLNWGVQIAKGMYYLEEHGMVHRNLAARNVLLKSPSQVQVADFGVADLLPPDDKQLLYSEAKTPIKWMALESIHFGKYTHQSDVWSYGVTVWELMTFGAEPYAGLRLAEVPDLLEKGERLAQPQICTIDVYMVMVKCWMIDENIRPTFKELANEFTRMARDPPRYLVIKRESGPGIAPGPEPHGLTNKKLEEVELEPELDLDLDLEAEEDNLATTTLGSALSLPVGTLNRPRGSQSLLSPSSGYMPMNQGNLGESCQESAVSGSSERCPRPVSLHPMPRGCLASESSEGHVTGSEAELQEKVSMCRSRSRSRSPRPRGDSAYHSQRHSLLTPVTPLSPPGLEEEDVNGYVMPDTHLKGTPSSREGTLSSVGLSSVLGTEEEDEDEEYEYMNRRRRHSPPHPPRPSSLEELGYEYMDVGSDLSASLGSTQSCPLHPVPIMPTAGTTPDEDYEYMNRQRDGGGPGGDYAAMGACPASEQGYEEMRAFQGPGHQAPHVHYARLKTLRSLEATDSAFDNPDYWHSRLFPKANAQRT
UniProt Q15303, whole entry R711C: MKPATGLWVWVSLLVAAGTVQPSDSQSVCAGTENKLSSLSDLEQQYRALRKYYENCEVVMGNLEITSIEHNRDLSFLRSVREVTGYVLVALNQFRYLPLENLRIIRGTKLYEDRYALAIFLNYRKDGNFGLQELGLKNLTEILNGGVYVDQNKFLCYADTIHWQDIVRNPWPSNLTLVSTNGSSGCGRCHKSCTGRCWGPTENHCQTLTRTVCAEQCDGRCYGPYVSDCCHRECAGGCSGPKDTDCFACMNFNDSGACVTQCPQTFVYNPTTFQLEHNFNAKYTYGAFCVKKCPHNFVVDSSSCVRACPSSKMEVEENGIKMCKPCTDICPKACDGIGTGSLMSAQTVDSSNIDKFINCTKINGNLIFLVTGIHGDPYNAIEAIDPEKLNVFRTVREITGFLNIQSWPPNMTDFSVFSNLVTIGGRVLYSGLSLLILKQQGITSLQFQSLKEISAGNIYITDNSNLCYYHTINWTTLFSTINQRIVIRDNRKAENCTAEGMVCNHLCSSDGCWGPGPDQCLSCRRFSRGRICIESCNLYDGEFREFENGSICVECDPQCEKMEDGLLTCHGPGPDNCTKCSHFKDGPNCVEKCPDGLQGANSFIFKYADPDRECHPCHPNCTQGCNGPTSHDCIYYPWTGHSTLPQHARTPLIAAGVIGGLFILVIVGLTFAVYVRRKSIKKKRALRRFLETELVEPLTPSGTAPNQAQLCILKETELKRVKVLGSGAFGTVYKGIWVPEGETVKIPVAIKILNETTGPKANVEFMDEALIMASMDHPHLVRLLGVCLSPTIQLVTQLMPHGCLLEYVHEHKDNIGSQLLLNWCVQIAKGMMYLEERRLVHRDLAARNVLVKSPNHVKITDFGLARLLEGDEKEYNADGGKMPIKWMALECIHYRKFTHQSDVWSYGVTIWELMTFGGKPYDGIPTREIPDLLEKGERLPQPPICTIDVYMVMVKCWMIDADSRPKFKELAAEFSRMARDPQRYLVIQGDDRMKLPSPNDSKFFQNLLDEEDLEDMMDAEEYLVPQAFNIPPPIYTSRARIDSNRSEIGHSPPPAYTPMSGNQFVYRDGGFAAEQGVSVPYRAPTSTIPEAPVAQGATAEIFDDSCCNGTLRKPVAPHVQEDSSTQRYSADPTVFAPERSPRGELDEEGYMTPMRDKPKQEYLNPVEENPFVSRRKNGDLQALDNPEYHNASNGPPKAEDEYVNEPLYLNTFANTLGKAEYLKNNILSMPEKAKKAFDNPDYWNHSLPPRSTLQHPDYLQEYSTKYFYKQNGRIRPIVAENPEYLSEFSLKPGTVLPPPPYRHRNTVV

How the values were obtained:
Experiment in all cases: kinase-Nluc reporter destabilization hit call (1 = scored as downregulated) (binary); higher = compound decreases kinase abundance
Settings in all cases: K562; 2-18 h
EGFR = EGFR (UniProt P00533)
EGFR_G719S = EGFR_G719S (UniProt P00533)
EGFR_G719S_T790M = EGFR_G719S_T790M (UniProt P00533)
EGFR_L718V = EGFR_L718V (UniProt P00533)
EGFR_L858R = EGFR_L858R (UniProt P00533)
EGFR_L861Q = EGFR_L861Q (UniProt P00533)
EGFR_T790M = EGFR_T790M (UniProt P00533)
EPHA2 = EPHA2 (UniProt P29317)
ERBB3 = ERBB3 (UniProt P21860)
[1] = target: ERBB4_R711C (clone: ERBB4_mut) (UniProt Q15303)

Measured: kinase-Nluc reporter destabilization hit call

C=CC(=O)Nc1ccc(C(=O)Nc2[nH]nc3c2CN(C(=O)N[C@H](CN(C)C)c2ccccc2)C3(C)C)cc1 (10 µM)
inactive: EGFR 0 | EGFR_G719S 0 | EGFR_G719S_T790M 0 | EGFR_L718V 0 | EGFR_L858R 0 | EGFR_L861Q 0 | EGFR_T790M 0 | EPHA2 = 0 | ERBB3 = 0 | [1] 0

c1nn(C2CCOCC2)cc1Nc1ncc2nnn(-c3ccc4cn[nH]c4c3)c2n1 (10 µM)
inactive: EGFR 0 | EGFR_G719S 0 | EGFR_G719S_T790M 0 | EGFR_L718V 0 | EGFR_L858R 0 | EGFR_L861Q 0 | EGFR_T790M 0 | EPHA2 = 0 | ERBB3 = 0 | [1] 0

CC(Sc1nc2c(cnn2-c2cccc(Cl)c2)c(=O)[nH]1)C(N)=O (stereo not given) (10 µM)
inactive: EGFR 0 | EGFR_G719S 0 | EGFR_G719S_T790M 0 | EGFR_L718V 0 | EGFR_L858R 0 | EGFR_L861Q 0 | EGFR_T790M 0 | EPHA2 = 0 | ERBB3 = 0 | [1] 0

Fc1ccc2[nH]ccc2c1-c1nc(N2CCOCC2)c2sc(CN3CCN(CC4CC4)CC3)cc2n1 (10 µM)
inactive: EGFR 0 | EGFR_G719S 0 | EGFR_G719S_T790M 0 | EGFR_L718V 0 | EGFR_L858R 0 | EGFR_L861Q 0 | EGFR_T790M 0 | EPHA2 = 0 | ERBB3 = 0 | [1] 0

Cn1c(CNc2cccc(C(=O)NCc3ccccc3C(F)(F)F)c2)nnc1-c1ccncc1 (10 µM)
inactive: EGFR 0 | EGFR_G719S 0 | EGFR_G719S_T790M 0 | EGFR_L718V 0 | EGFR_L858R 0 | EGFR_L861Q 0 | EGFR_T790M 0 | EPHA2 = 0 | ERBB3 = 0 | [1] 0

Cc1cc(Nc2cc(N)ncn2)c(=O)n2c1C(=O)NC21CCCCC1 [Tomivosertib] (10 µM)
inactive: EGFR 0 | EGFR_G719S 0 | EGFR_G719S_T790M 0 | EGFR_L718V 0 | EGFR_L858R 0 | EGFR_L861Q 0 | EGFR_T790M 0 | EPHA2 = 0 | ERBB3 = 0 | [1] 0

COc1ccc(S(=O)(=O)Nc2cc(-c3c(O)ccc4ccccc34)c(O)c3ccccc23)cc1 (10 µM)
inactive: EGFR 0 | EGFR_G719S 0 | EGFR_G719S_T790M 0 | EGFR_L718V 0 | EGFR_L858R 0 | EGFR_L861Q 0 | EGFR_T790M 0 | EPHA2 = 0 | ERBB3 = 0 | [1] 0

COCCOCCc1c(C)c2cc(OC)c(O)c(C=O)c2oc1=O (10 µM)
inactive: EGFR 0 | EGFR_G719S 0 | EGFR_G719S_T790M 0 | EGFR_L718V 0 | EGFR_L858R 0 | EGFR_L861Q 0 | EGFR_T790M 0 | EPHA2 = 0 | ERBB3 = 0 | [1] 0

C=C1C(=O)[C@@]23[C@H](O)C[C@@H]4C(C)(C)C(=O)CC[C@@]4(C)[C@@H]2CC[C@@H]1[C@H]3O [Glaucocalyxin A] (2.5 µM)
inactive: EGFR 0 | EGFR_G719S 0 | EGFR_G719S_T790M 0 | EGFR_L718V 0 | EGFR_L858R 0 | EGFR_L861Q 0 | EGFR_T790M 0 | EPHA2 = 0 | ERBB3 = 0 | [1] 0

O=C1CC[C@H](NC(=O)Cc2ccccc2)C(=O)N1 [Antineoplaston A10] (10 µM)
inactive: EGFR 0 | EGFR_G719S 0 | EGFR_G719S_T790M 0 | EGFR_L718V 0 | EGFR_L858R 0 | EGFR_L861Q 0 | EGFR_T790M 0 | EPHA2 = 0 | ERBB3 = 0 | [1] 0

O=C(Nc1ccc(Cl)cc1)C1CCCN(C(=O)c2cc(C(F)(F)F)cc(C(F)(F)F)c2)C1 (stereo not given) (10 µM)
inactive: EGFR 0 | EGFR_G719S 0 | EGFR_G719S_T790M 0 | EGFR_L718V 0 | EGFR_L858R 0 | EGFR_L861Q 0 | EGFR_T790M 0 | EPHA2 = 0 | ERBB3 = 0 | [1] 0

c1ccc(Cn2c(-c3ccc(OC[C@H](C4CCNCC4)n4c(-c5ccccc5)nc5ccccc54)cc3)nc3ccccc32)cc1 [Deltarasin] (2.5 µM)
inactive: EGFR 0 | EGFR_G719S 0 | EGFR_G719S_T790M 0 | EGFR_L718V 0 | EGFR_L858R 0 | EGFR_L861Q 0 | EGFR_T790M 0 | EPHA2 = 0 | ERBB3 = 0 | [1] 0

COc1c(O)cc2oc(-c3ccc(O)cc3)cc(=O)c2c1O [Hispidulin] (10 µM)
inactive: EGFR 0 | EGFR_G719S 0 | EGFR_G719S_T790M 0 | EGFR_L718V 0 | EGFR_L858R 0 | EGFR_L861Q 0 | EGFR_T790M 0 | EPHA2 = 0 | ERBB3 = 0 | [1] 0

O=C(c1cccc(Cl)c1F)N1CCN(Cc2cccc(Nc3nccs3)n2)CC1 (2.5 µM)
inactive: EGFR 0 | EGFR_G719S 0 | EGFR_G719S_T790M 0 | EGFR_L718V 0 | EGFR_L858R 0 | EGFR_L861Q 0 | EGFR_T790M 0 | EPHA2 = 0 | ERBB3 = 0 | [1] 0

CC(C)n1ncnc1-c1cn2c(n1)-c1ccc(O[C@@H](C)C(N)=O)cc1OCC2 (10 µM)
inactive: EGFR 0 | EGFR_G719S 0 | EGFR_G719S_T790M 0 | EGFR_L718V 0 | EGFR_L858R 0 | EGFR_L861Q 0 | EGFR_T790M 0 | EPHA2 = 0 | ERBB3 = 0 | [1] 0

O=C(O)[C@H]1O[C@@H](Oc2cc3oc(-c4ccc(O)cc4)cc(=O)c3c(O)c2O)[C@H](O)[C@@H](O)[C@@H]1O [Scutellarin] (10 µM)
inactive: EGFR 0 | EGFR_G719S 0 | EGFR_G719S_T790M 0 | EGFR_L718V 0 | EGFR_L858R 0 | EGFR_L861Q 0 | EGFR_T790M 0 | EPHA2 = 0 | ERBB3 = 0 | [1] 0

Nc1ncc(C(=O)NC2CN(C(=O)C3CC3)C2)c2ccc(-c3cccc(F)c3)nc12 (2 µM)
inactive: EGFR 0 | EGFR_G719S 0 | EGFR_G719S_T790M 0 | EGFR_L718V 0 | EGFR_L858R 0 | EGFR_L861Q 0 | EGFR_T790M 0 | EPHA2 = 0 | ERBB3 = 0 | [1] 0

Among those listed so far, 7 have a carbonyl joined to an NH by a bond outside any ring.
C=CC(=O)Nc1ccc(C(=O)Nc2[nH]nc3c2CN(C(=O)N[C@H](CN(C)C)c2ccccc2)C3(C)C)cc1 (10 µM)
inactive: EGFR 0 | EGFR_G719S 0 | EGFR_G719S_T790M 0 | EGFR_L718V 0 | EGFR_L858R 0 | EGFR_L861Q 0 | EGFR_T790M 0 | EPHA2 = 0 | ERBB3 = 0 | [1] 0

CC(Sc1nc2c(cnn2-c2cccc(Cl)c2)c(=O)[nH]1)C(N)=O (stereo not given) (10 µM)
inactive: EGFR 0 | EGFR_G719S 0 | EGFR_G719S_T790M 0 | EGFR_L718V 0 | EGFR_L858R 0 | EGFR_L861Q 0 | EGFR_T790M 0 | EPHA2 = 0 | ERBB3 = 0 | [1] 0

Cn1c(CNc2cccc(C(=O)NCc3ccccc3C(F)(F)F)c2)nnc1-c1ccncc1 (10 µM)
inactive: EGFR 0 | EGFR_G719S 0 | EGFR_G719S_T790M 0 | EGFR_L718V 0 | EGFR_L858R 0 | EGFR_L861Q 0 | EGFR_T790M 0 | EPHA2 = 0 | ERBB3 = 0 | [1] 0

O=C1CC[C@H](NC(=O)Cc2ccccc2)C(=O)N1 [Antineoplaston A10] (10 µM)
inactive: EGFR 0 | EGFR_G719S 0 | EGFR_G719S_T790M 0 | EGFR_L718V 0 | EGFR_L858R 0 | EGFR_L861Q 0 | EGFR_T790M 0 | EPHA2 = 0 | ERBB3 = 0 | [1] 0

O=C(Nc1ccc(Cl)cc1)C1CCCN(C(=O)c2cc(C(F)(F)F)cc(C(F)(F)F)c2)C1 (stereo not given) (10 µM)
inactive: EGFR 0 | EGFR_G719S 0 | EGFR_G719S_T790M 0 | EGFR_L718V 0 | EGFR_L858R 0 | EGFR_L861Q 0 | EGFR_T790M 0 | EPHA2 = 0 | ERBB3 = 0 | [1] 0

CC(C)n1ncnc1-c1cn2c(n1)-c1ccc(O[C@@H](C)C(N)=O)cc1OCC2 (10 µM)
inactive: EGFR 0 | EGFR_G719S 0 | EGFR_G719S_T790M 0 | EGFR_L718V 0 | EGFR_L858R 0 | EGFR_L861Q 0 | EGFR_T790M 0 | EPHA2 = 0 | ERBB3 = 0 | [1] 0

Nc1ncc(C(=O)NC2CN(C(=O)C3CC3)C2)c2ccc(-c3cccc(F)c3)nc12 (2 µM)
inactive: EGFR 0 | EGFR_G719S 0 | EGFR_G719S_T790M 0 | EGFR_L718V 0 | EGFR_L858R 0 | EGFR_L861Q 0 | EGFR_T790M 0 | EPHA2 = 0 | ERBB3 = 0 | [1] 0

(further entries)

O=C(NCCN1CCOCC1)Nc1nc2ccc(Sc3nnc4ccc(-c5ccc(F)cc5)nn34)cc2s1 (10 µM)
inactive: EGFR 0 | EGFR_G719S 0 | EGFR_G719S_T790M 0 | EGFR_L718V 0 | EGFR_L858R 0 | EGFR_L861Q 0 | EGFR_T790M 0 | EPHA2 = 0 | ERBB3 = 0 | [1] 0

Cc1cc(O)c2c(c1)C(=O)c1cccc(O)c1C2=O [Chrysophanol] (2 µM)
inactive: EGFR 0 | EGFR_G719S 0 | EGFR_G719S_T790M 0 | EGFR_L718V 0 | EGFR_L858R 0 | EGFR_L861Q 0 | EGFR_T790M 0 | EPHA2 = 0 | ERBB3 = 0 | [1] 0

COC(=O)/C=C/c1ccccc1 [Methyl cinnamate] (10 µM)
inactive: EGFR 0 | EGFR_G719S 0 | EGFR_G719S_T790M 0 | EGFR_L718V 0 | EGFR_L858R 0 | EGFR_L861Q 0 | EGFR_T790M 0 | EPHA2 = 0 | ERBB3 = 0 | [1] 0

C=CC(=O)Nc1cc(Nc2nccc(-c3cn(C)c4ccccc34)n2)c(OC)cc1OCCN(C)C [Rezivertinib] (2.5 µM)
inactive: EGFR 0 | EGFR_G719S 0 | EGFR_G719S_T790M 0 | EGFR_L718V 0 | EGFR_L858R 0 | EGFR_L861Q 0 | EGFR_T790M 0 | EPHA2 = 0 | ERBB3 = 0 | [1] 0

CCNC(=O)C#Cc1ccc2c(C(=Nc3ccc(CN(C)C)cc3)c3ccccc3)c(O)[nH]c2c1 (2.5 µM)
inactive: EGFR 0 | EGFR_G719S 0 | EGFR_G719S_T790M 0 | EGFR_L718V 0 | EGFR_L858R 0 | EGFR_L861Q 0 | EGFR_T790M 0 | EPHA2 = 0 | ERBB3 = 0 | [1] 0

C=CC(=O)Nc1cc(Nc2nccc(-c3cn(C)c4ccccc34)n2)c(OC)cc1N(C)CCNC [AZ7550 Mesylate] (2.5 µM)
inactive: EGFR 0 | EGFR_G719S 0 | EGFR_G719S_T790M 0 | EGFR_L718V 0 | EGFR_L858R 0 | EGFR_L861Q 0 | EGFR_T790M 0 | EPHA2 = 0 | ERBB3 = 0 | [1] 0

Cc1cccc(/C=N/Nc2cc(N3CCOCC3)n3nc(-c4ccncc4)cc3n2)c1 (10 µM)
inactive: EGFR 0 | EGFR_G719S 0 | EGFR_G719S_T790M 0 | EGFR_L718V 0 | EGFR_L858R 0 | EGFR_L861Q 0 | EGFR_T790M 0 | EPHA2 = 0 | ERBB3 = 0 | [1] 0

COc1cc2nccc(Oc3ccc(NC(=O)c4cn(C(C)C)c(=O)n(-c5ccc(F)cc5)c4=O)cc3F)c2cc1OC (0.5 µM)
inactive: EGFR 0 | EGFR_G719S 0 | EGFR_G719S_T790M 0 | EGFR_L718V 0 | EGFR_L858R 0 | EGFR_L861Q 0 | EGFR_T790M 0 | EPHA2 = 0 | ERBB3 = 0 | [1] 0

CCCCCC(=O)N[C@@H](Cc1ccc(O)cc1)C(=O)OC (10 µM)
inactive: EGFR 0 | EGFR_G719S 0 | EGFR_G719S_T790M 0 | EGFR_L718V 0 | EGFR_L858R 0 | EGFR_L861Q 0 | EGFR_T790M 0 | EPHA2 = 0 | ERBB3 = 0 | [1] 0

C=CC(=O)N1CC[C@@H](Oc2nc(Nc3ccc(N4CCC(N5CCN(C)CC5)CC4)cc3)c(C(N)=O)nc2CC)C1 [Naquotinib (mesylate)] (2.5 µM)
inactive: EGFR 0 | EGFR_G719S 0 | EGFR_G719S_T790M 0 | EGFR_L718V 0 | EGFR_L858R 0 | EGFR_L861Q 0 | EGFR_T790M 0 | EPHA2 = 0 | ERBB3 = 0 | [1] 0

Nc1nc2c(nc(Br)n2[C@@H]2O[C@@H]3COP(=O)(O)O[C@H]3[C@H]2O)c(=O)[nH]1 [8-Bromo-cGMP (sodium)] (10 µM)
inactive: EGFR 0 | EGFR_G719S 0 | EGFR_G719S_T790M 0 | EGFR_L718V 0 | EGFR_L858R 0 | EGFR_L861Q 0 | EGFR_T790M 0 | EPHA2 = 0 | ERBB3 = 0 | [1] 0

Brc1ccc(CSc2nc3ccccc3o2)cc1 [BMP signaling agonist sb4] (10 µM)
inactive: EGFR 0 | EGFR_G719S 0 | EGFR_G719S_T790M 0 | EGFR_L718V 0 | EGFR_L858R 0 | EGFR_L861Q 0 | EGFR_T790M 0 | EPHA2 = 0 | ERBB3 = 0 | [1] 0
